Values from PubChem BioAssay AID743121 (NCATS, 2013).
Assay: 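Genes whose silencing strengthens cell killing by camptothecin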 (primary screen). Cells: MDA-MB-231 cells, a human breast cancer line. Knock-down reagent: single siRNA against human genes, 20 nM siRNA (0.8 pmol per well). Duration: 120 h (drug added 48 h after transfection, read 72 h later). Conditions: camptothecin 20 nM (about EC30) for 72 h; vehicle 0.1% DMSO in parallel plates. Detection: 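CellTiter-Glo ATP signal, scaled to control siRNA as percent viability; sensitisation given as log2 of untreated divided by camptothecin-treated viability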. Direction: log2 vehicle/camptothecin viability: higher = stronger sensitisation to camptothecin; viability with camptothecin: higher = more viable cells. Units: viability with camptothecin in % of control. Hit rule: 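Active genes have an RSA gene-level p-value below 0.001, computed from the ratios of their separate siRNAs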.
The deposit covers about 26,000 reagents; below is a random part of them. 167 of them (0.63%) count as active. 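Calls are per gene from RSA p-values that are not deposited; an individual active-marked siRNA can sensitise only weakly.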 Reagents against one gene are numbered here. Further read-outs or replicates are left out here.

MASP2 #1: log2 vehicle/camptothecin viability = 0.105; viability with camptothecin = 116; call = inactive
MASP2 #2: log2 vehicle/camptothecin viability = -0.141; viability with camptothecin = 68.8; call = inactive
MASP2 #3: log2 vehicle/camptothecin viability = 0.133; viability with camptothecin = 60; call = inactive
MASP2 #4: log2 vehicle/camptothecin viability = 0.0333; viability with camptothecin = 78.9; call = inactive
MASP2 #5: log2 vehicle/camptothecin viability = -0.0157; viability with camptothecin = 87.9; call = inactive
MASP2 #6: log2 vehicle/camptothecin viability = -0.0813; viability with camptothecin = 122; call = inactive
UBFD1 #1: log2 vehicle/camptothecin viability = -0.0251; viability with camptothecin = 73.9; call = inactive
UBFD1 #2: log2 vehicle/camptothecin viability = 0.466; viability with camptothecin = 64.8; call = inactive
UBFD1 #3: log2 vehicle/camptothecin viability = -0.142; viability with camptothecin = 74.2; call = inactive
SPEG #1: log2 vehicle/camptothecin viability = 0.115; viability with camptothecin = 93.8; call = inactive
SPEG #2: log2 vehicle/camptothecin viability = 0.216; viability with camptothecin = 73.4; call = inactive
SPEG #3: log2 vehicle/camptothecin viability = -0.449; viability with camptothecin = 69.3; call = inactive
SPEG #4: log2 vehicle/camptothecin viability = -0.194; viability with camptothecin = 23.1; call = inactive
CELSR3 #1: log2 vehicle/camptothecin viability = 0.369; viability with camptothecin = 37.4; call = inactive
CELSR3 #2: log2 vehicle/camptothecin viability = 0.053; viability with camptothecin = 97.7; call = inactive
CELSR3 #3: log2 vehicle/camptothecin viability = -0.388; viability with camptothecin = 121; call = inactive
CELSR3 #4: log2 vehicle/camptothecin viability = -0.226; viability with camptothecin = 52.5; call = inactive
PILRB #1: log2 vehicle/camptothecin viability = -0.232; viability with camptothecin = 80.7; call = inactive
PILRB #2: log2 vehicle/camptothecin viability = 1.03; viability with camptothecin = 6.18; call = inactive
PILRB #3: log2 vehicle/camptothecin viability = 0.203; viability with camptothecin = 49.2; call = inactive
PILRB #4: log2 vehicle/camptothecin viability = -0.15; viability with camptothecin = 96.1; call = inactive

Looked up above:
SPEG #2, viability with camptothecin → 73.4
For “log2 vehicle/camptothecin viability”, CELSR3 #3 is entered as -0.388
SPEG #3, viability with camptothecin = 69.3

Further records:
TLR7 #1: log2 vehicle/camptothecin viability = -0.491; viability with camptothecin = 66.8; call = inactive
TLR7 #2: log2 vehicle/camptothecin viability = -0.0196; viability with camptothecin = 111; call = inactive
TLR7 #3: log2 vehicle/camptothecin viability = -0.158; viability with camptothecin = 95.1; call = inactive
TLR7 #4: log2 vehicle/camptothecin viability = -0.362; viability with camptothecin = 107; call = inactive
CES3 #1: log2 vehicle/camptothecin viability = -0.314; viability with camptothecin = 65.1; call = inactive
CES3 #2: log2 vehicle/camptothecin viability = 0.148; viability with camptothecin = 66.5; call = inactive
CES3 #3: log2 vehicle/camptothecin viability = -0.414; viability with camptothecin = 54.3; call = inactive
CES3 #4: log2 vehicle/camptothecin viability = 0.587; viability with camptothecin = 15.4; call = inactive
TAAR6 #1: log2 vehicle/camptothecin viability = -0.0941; viability with camptothecin = 52.9; call = inactive
TAAR6 #2: log2 vehicle/camptothecin viability = -0.348; viability with camptothecin = 99; call = inactive
TAAR6 #3: log2 vehicle/camptothecin viability = -0.131; viability with camptothecin = 71.7; call = inactive
TAAR6 #4: log2 vehicle/camptothecin viability = 0.0154; viability with camptothecin = 69.5; call = inactive
PCSK1 #1: log2 vehicle/camptothecin viability = 0.0891; viability with camptothecin = 98.4; call = inactive
PCSK1 #2: log2 vehicle/camptothecin viability = -0.0803; viability with camptothecin = 82.6; call = inactive
PCSK1 #3: log2 vehicle/camptothecin viability = -0.106; viability with camptothecin = 49; call = inactive
PCSK1 #4: log2 vehicle/camptothecin viability = -0.399; viability with camptothecin = 90.8; call = inactive
